Laboratory results reported in PubChem BioAssay AID540256 (National Center for Advancing Translational Sciences (NCATS), 2011).
Among all 300,000 compounds or so, about 3,700 (1.2%) were called active. This list was built around the results that the source calls inconclusive (neither active nor inactive); the mix of calls is not that of the screen. Calls follow the shape of the full dose curve; tested in HEK293 cells. Potencies of inconclusive entries are doubtful fits and often do not repeat.

Assay: qHTS for Inhibitors of binding or entry into cells for Lassa Virus; also: nearly all actives have a fitted effect of over 50% in size
Conditions: Lassa virus pseudotype entry inhibition, cell reporter; activity change, negative = inhibition: at 37.9 µM (top of the series) unless noted
% is scaled to controls: 0 for no effect and ±100 for the full control effect; potency is read from the fitted curve at half-maximal effect.

Row | Structure (SMILES) | Potency | activity change, negative = inhibition
1 | COc1ccc(/C=N/Nc2cc(OC)ncn2)cc1 | active: 10 µM | 
2 | CC(C)(C)OC(=O)N[C@@H](Cc1ccccc1)c1nnc(SCC(=O)O)o1 |  | inactive: 18%
3 | CC(C)CNC(=O)c1cc([N+](=O)[O-])ccc1N1CCOCC1 |  | inactive: 2.36%
4 | COc1ccc(C(=O)Nn2c(SCC(=O)NCc3ccco3)nc3ccccc3c2=O)cc1 | active: 1 µM | 
5 | CCOC(=O)NC1(NCc2ccccc2)Oc2ccccc2O1 | inconclusive: 29.1 µM [inhibitor, single point] | 
6 | O=C(c1ccccc1)c1c(O)cc(-c2ccccc2)oc1=O |  | inactive: 2.37%
7 | OC1/C(=C/c2ccccc2F)N2CCC1CC2 (stereo not given) | inconclusive: 0.794 µM [activator, partial curve, poor fit] | 
8 | O=C(CSc1ccccn1)N1CCNC1=O | inconclusive: 1.26 µM [inhibitor, single point] | 
9 | Cc1cc(OCC(=O)N2CCCN(C)CC2)ccc1Cl |  | inactive: 18.4% [at 46.1 µM]
10 | O=C(Nc1ccc2nc(SCCOc3ccccc3)sc2c1)c1ccco1 |  | inactive: 6.39% [at 46.1 µM]
11 | Cc1ccc(C(=O)COc2ccccc2C(=O)Nc2ccccc2)cc1 | inconclusive: 0.13 µM [activator, full curve, poor fit] | 
12 | Cc1cccn2c(=O)c3cc(C(=O)NCC4CCCO4)c(=N)n(Cc4ccc(F)cc4)c3nc12 (stereo not given) | inconclusive: 14.1 µM [inhibitor, partial curve, poor fit] | 
13 | Cc1ccc(-c2noc(CN3CCOCC3)n2)cc1 | inconclusive: 6.31 µM [activator, single point] | 
14 | CC(C)[C@@H]1CC[C@@H](C)C[C@@H]1P(=O)(c1ccccc1)c1ccccc1 |  | inactive: 7.51%
15 | O=C(c1cc(COc2cccc(C(F)(F)F)c2)on1)N1C[C@@H]2CCC[C@H]1C2 |  | inactive: -21.7%
16 | CNS(=O)(=O)c1ccc(NC(=O)C2CC(=O)N(c3ccc(Cl)cc3)C2)cc1 (stereo not given) | inconclusive: 0.562 µM [inhibitor, full curve, poor fit] | 
17 | COc1ccccc1N1CCN(CCCNC(=O)Nc2ccccc2)CC1 |  | inactive: -16.9%
18 | O=c1oc(-c2ccccc2NS(=O)(=O)c2ccc(Cl)cc2)nc2ccccc12 | inconclusive: 15.8 µM [inhibitor, partial curve, poor fit] | 
19 | CC(Oc1cccc(Cl)c1)C(=O)Nc1cc(=O)n(C)c(=O)n1C (stereo not given) |  | inactive: 6.04%
20 | COc1ccccc1NC(=S)N/N=C/c1cccc(C)c1 | inconclusive: 15.8 µM [inhibitor, single point] | 
21 | Cc1csc(NC(=O)Cc2c[nH]c3ccccc23)n1 | inconclusive: 35.5 µM [inhibitor, single point] | 
22 | Cc1ccc(S(=O)(=O)N(CC(=O)N/N=C/c2cccc(C)c2)c2cccc3cccnc23)cc1 | inconclusive: 12.6 µM [inhibitor, partial curve, poor fit] | 
23 | O=C(OCc1ccccc1F)c1ccc2c(c1)-c1ccccc1C2=O | active: 2.06 µM | 
24 | Cc1nc(N/N=C/c2ccc(O)cc2O)cc(N2CCOCC2)n1 | inconclusive: 11.2 µM [inhibitor, partial curve, poor fit] | 
25 | COc1ccc(Cl)cc1NC(=O)CN(c1cccc(C)c1C)S(C)(=O)=O | inconclusive: 11.2 µM [inhibitor, partial curve, poor fit] | 

Shown with tabs: part of the list above.
Row	Structure (SMILES)	Potency	activity change, negative = inhibition
11	Cc1ccc(C(=O)COc2ccccc2C(=O)Nc2ccccc2)cc1	inconclusive: 0.13 µM [activator, full curve, poor fit]	
12	Cc1cccn2c(=O)c3cc(C(=O)NCC4CCCO4)c(=N)n(Cc4ccc(F)cc4)c3nc12 (stereo not given)	inconclusive: 14.1 µM [inhibitor, partial curve, poor fit]	
13	Cc1ccc(-c2noc(CN3CCOCC3)n2)cc1	inconclusive: 6.31 µM [activator, single point]	

Next part

Row | Structure (SMILES) | Potency | activity change, negative = inhibition
26 | O=C(CCCCCn1c(=O)[nH]c2ccccc2c1=O)NCCc1ccccc1 | inconclusive: 6.31 µM [activator, partial curve, poor fit] | 
27 | Cc1nn(S(=O)(=O)c2ccc([N+](=O)[O-])cc2)c(C)c1Sc1ccccc1 |  | inactive: 25.4% [at 14.3 µM]
28 | Nc1nc(-c2ccc(Br)cc2)cs1 | inconclusive: 25.1 µM [activator, single point] | 
29 | CC(C)CSc1nnc2c(n1)[nH]c1ccccc12 | inconclusive: 4.11 µM [inhibitor, full curve, poor fit] | 
30 | C=C(C)COc1ccc(-c2n[nH]c(C)c2-c2ccccc2OC)c(O)c1 | active: 7.08 µM | 
31 | CCN1CCCC1CNCc1cccc(OC)c1OCc1ccccc1 (stereo not given) |  | inactive: 6.23%
32 | CCc1ccc(C2N=C(N)Nc3nc4ccccc4n32)cc1 (stereo not given) | inconclusive: 3.55 µM [inhibitor, partial curve, poor fit] | 
33 | O=C(CCCNS(=O)(=O)c1cccs1)N1CCc2ccccc2C1 |  | inactive: -10.9%
34 | CN(C)c1nc(-c2cn(CCC#N)c3ccccc23)cs1 |  | inactive: -18.4%
35 | Cc1ccc(-n2ncc(C(=O)NCCc3ccsc3)c2C2CCN(C(=O)OC(C)(C)C)CC2)c(C)c1 | inconclusive: 1.41 µM [inhibitor, full curve, poor fit] | 
36 | CCN(C(C)=O)c1cnc(C=NNC(N)=S)c2ccccc12 | active: 8.91 µM | 
37 | CC(=O)N(C)c1ccc(NC(=O)c2ccccc2C(=O)O)cc1 |  | inactive: 2.71%
38 | O=C(C1CCCO1)N1CCN(S(=O)(=O)c2ccc(Cl)cc2)CC1 (stereo not given) |  | inactive: 7.09%
39 | Cc1ccc(NC(=O)c2ccc(COc3ccccc3)o2)nc1 |  | inactive: 1.5% [at 46.1 µM]
40 | Cc1ccc2sc(N(CCCN(C)C)C(=O)c3ccco3)nc2c1C |  | inactive: -24% [at 46.1 µM]
41 | N#Cc1c(Br)n(C2OC(CO)C(O)C2O)c2ncnc(N)c12 (stereo not given) | inconclusive: 7.08 µM [inhibitor, partial curve, poor fit] | 
42 | Cc1ccc(Oc2ccc(OCC(=O)NC3CCS(=O)(=O)C3)cc2)cc1 (stereo not given) | inconclusive: 11.2 µM [inhibitor, partial curve, poor fit] | 
43 | O=C(Nc1cnn(Cc2ccc(F)cc2)c1)C(c1ccccc1)c1ccccc1 | inconclusive: 14.1 µM [inhibitor, single point] | 
44 | Cc1ccccc1NC(C)C(=O)N/N=C/c1ccccc1OCc1cccc(Br)c1 (stereo not given) | inconclusive: 10 µM [inhibitor, partial curve] | 
45 | COc1cc(OC)c(NC(=O)CCc2nc(-c3cccs3)no2)cc1Cl |  | inactive: -20.3%
46 | COc1cn(-c2ccccc2)nc1C(=O)NCc1ccccc1 | inconclusive: 35.5 µM [inhibitor, single point] | 
47 | CCc1ccccc1NC(=O)c1cc(-c2ccc(OC)cc2)on1 |  | inactive: 5.5% [at 46.1 µM]
48 | CN1CCN(C(CNC(=O)C(=O)Nc2ccccc2C#N)c2ccc3c(c2)OCO3)CC1 (stereo not given) |  | inactive: -2.73% [at 46.1 µM]
49 | Cc1cc(C=O)c(C)n1-c1ccc(NC2CCCCC2)c([N+](=O)[O-])c1 | inconclusive: 10 µM [inhibitor, partial curve, poor fit] | 
50 | CCN(CC)C(=O)COC(=O)c1cc(-c2ccco2)nc2ccccc12 |  | inactive: -3.68%

Row | Structure (SMILES) | Potency | activity change, negative = inhibition
51 | N=C1C=CC(=C(c2ccc(N)cc2)c2ccc(N)cc2)C=C1 | active: 5.01 µM | 
52 | COc1ccc(C(=O)N2CCN(c3cccc(Cl)c3)CC2)c(OC)c1 | inconclusive: 22.4 µM [inhibitor, single point] | 
53 | Cn1c(NCc2ccco2)nc2c1c(=O)n(Cc1ccc(Cl)cc1)c(=O)n2C | inconclusive: 15.8 µM [inhibitor, single point] | 
54 | COc1cccc(C(=O)N(Cc2ccc(N(C)C)cc2)Cc2ccco2)c1 | inconclusive: 1.12 µM [inhibitor, full curve, poor fit] | 
55 | COc1cc(C(=O)Nc2ccc3c(c2)CCN3C(C)=O)cc(OC)c1OC | inconclusive: 2.82 µM [inhibitor, single point] | 
56 | COc1ccc(OC)c2c(C)cc(N3CCN(C(=O)c4ccc(C)cc4)CC3)nc12 | inconclusive: 8.91 µM [inhibitor, partial curve, poor fit] | 
57 | Cc1cccc(OCc2nnc(SCC(=O)N(C)C3CCCCC3)o2)c1 |  | inactive: 13.5%
58 | Nc1cc(=O)[nH]c(SCc2csc(-c3ccccc3)n2)n1 | inconclusive: 29.1 µM [activator, partial curve, poor fit] | 
59 | CC(=O)N1c2ccc3ccccc3c2C2C=CCC2C1c1ccc(Br)cc1 (stereo not given) |  | inactive: -27.5%
60 | COC(=O)c1ccc(NC(=O)Nc2ccc3c(c2)nc(C)n3C)cc1 |  | inactive: 17.6% [at 46.1 µM]
61 | Cc1cccc(C(=O)NCC(=O)OCC(=O)N(C)CC(=O)Nc2ccc(F)cc2)c1 |  | inactive: -0.344%
62 | [O-][N+]1=C(c2cccs2)CN(O)C1 | inconclusive: 0.184 µM [activator, single point] | 
63 | CCN(CC)C(=O)c1nn(-c2ccccc2)c2c1C1CCC2(C)C1(C)C (stereo not given) | inconclusive: 7.08 µM [inhibitor, partial curve, poor fit] | 
64 | Cc1ccc(-c2nnc(N)s2)cc1 |  | inactive: 10.7%
65 | Cn1nc([N+](=O)[O-])nc1S(C)(=O)=O | inconclusive: 25.1 µM [inhibitor, single point] | 
66 | O=C(COc1ccc(Br)cc1Cl)NC(=O)NCc1ccccc1 | inconclusive: 13 µM [inhibitor, partial curve, poor fit] | 
67 | COc1ccccc1NC(=O)c1cc(-c2cc(OC)c(OC)c(OC)c2)nc2ccccc12 | inconclusive: 35.5 µM [inhibitor, single point] | 
68 | Cc1cccc(Nc2nnc(SCC(=O)NCc3cccs3)s2)c1C |  | inactive: 5.64%
69 | C[N+](C)(C)CCCCCCC(=O)/C=N/O |  | inactive: -0.672%
70 | Cn1cc(CN2CCN(CC(C)(C)C)C(CCO)C2)c2ccccc21 (stereo not given) |  | inactive: -19.4% [at 46.1 µM]
71 | Cc1cc(O)ccc1Nc1nc(-c2sc(N)nc2C)cs1 |  | inactive: 0.587%
72 | CCc1cc2c3c(c1)/C(=C1/SC(N)=NC1=O)C(=O)N3C(C)(C)C=C2C | inconclusive: 1.16 µM [activator, single point] | 
73 | O=S(=O)(N/N=C\c1ccc(-c2ccccc2Cl)o1)c1ccccc1 |  | inactive: -1.25%
74 | Cc1ccc(-c2nnc(Nc3ccc(C(=O)N(C)C)cc3)c3ccccc23)cc1S(=O)(=O)NCC1CCCO1 (stereo not given) | inconclusive: 5.01 µM [inhibitor, partial curve, poor fit] | 
75 | CCCC1=C(C(=O)OCC)C(c2cc(Cl)cc(OC)c2OCc2ccccc2)NC(=O)N1 (stereo not given) | inconclusive: 23.1 µM [inhibitor, partial curve, poor fit] | 
